Laboratory results from PubChem BioAssay AID2551 (National Center for Advancing Translational Sciences (NCATS), 2010).
Among all 310,000 compounds or so, about 17,000 (5.5%) were called active. This list was built around the results that the source calls inconclusive (neither active nor inactive); the mix of calls is not that of the screen. The call rests on the fitted dose curve; in most records, active means well fitted inhibition curve with a large enough effect; inconclusive means small, poorly fitted or top-dose-only effect, or effect the other way; inactive means no such curve, though single readings can be large or run the other way. Potencies beside an inconclusive call are fits to weak or partial responses and may not hold up.

Protein sequences, listed by entry. Tags and fused reporters are not part of them. Lines headed by an entry give the natural chain unless they say otherwise; changes in a name come on top.
UniProt P51450: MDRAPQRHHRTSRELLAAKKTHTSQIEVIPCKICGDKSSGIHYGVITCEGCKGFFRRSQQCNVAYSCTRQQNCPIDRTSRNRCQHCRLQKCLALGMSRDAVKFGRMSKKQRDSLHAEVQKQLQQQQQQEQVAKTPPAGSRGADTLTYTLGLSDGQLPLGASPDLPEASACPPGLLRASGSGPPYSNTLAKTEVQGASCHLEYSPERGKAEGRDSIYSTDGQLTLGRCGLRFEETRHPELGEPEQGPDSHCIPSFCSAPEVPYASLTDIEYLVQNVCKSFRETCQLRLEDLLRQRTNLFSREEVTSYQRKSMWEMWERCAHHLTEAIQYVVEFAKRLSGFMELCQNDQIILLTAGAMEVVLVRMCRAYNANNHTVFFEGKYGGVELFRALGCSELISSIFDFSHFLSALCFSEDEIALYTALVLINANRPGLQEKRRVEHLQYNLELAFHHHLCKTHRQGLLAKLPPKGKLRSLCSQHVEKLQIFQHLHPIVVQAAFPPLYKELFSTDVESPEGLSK

Target: Nuclear receptor ROR-gamma (Mus musculus) (UniProt P51450)
Test: qHTS for inhibitors of ROR gamma transcriptional activity; further: nearly all actives have a fitted effect of over 60% in size
Details: Drosophila S2 Gal4-RORgamma UAS-luciferase reporter, 20 h; activity change, negative = inhibition: at 53.6 µM (top of the series)
Outline: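 Drosophila S2 cells stably expressing Gal4-DBD/mouse RORγ fusion under metallothionein promoter plus UAS-luciferase; compound 1 h, then 700 uM CuSO4 induction for 20 h at ambient temperature; inhibition read as reduced luminescence.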
On the % scale 0 is the no-effect control and ±100 the full control effect; potency means the concentration at half of the fitted maximal effect.

Potency, active:
O=C1c2ccccc2NC(c2ccc(-c3cccc(Cl)c3)o2)N1O (stereo not given) 11.2 µM
O=C(/C=C/NNC(=O)c1ccc(Cl)cc1)c1ccccc1 11.2 µM
Cc1cccc(NC(=S)NCCc2c[nH]c3ccccc23)c1 2.51 µM
CCOC(=O)C1=NN(C(=O)c2ccccc2)C(O)(c2ccc(C)cc2)C1 (stereo not given) 10 µM
CC(/C=C/c1ccc(C)o1)=C\C(=O)O 20 µM
CCOc1ccc(CSCCNC(=S)Nc2ccc(OC)cc2)cc1 2 µM
N#Cc1ccc(-c2csc(NNC(=O)c3ccc(Br)cc3)n2)cc1 5.01 µM
Cc1c[nH]c2cccc(OCC(O)CNC(C)(C)C)c12 (stereo not given) 1.41 µM
COc1ccc(NC(=O)/C(Cl)=C(/Cl)S(=O)Cc2ccc(Cl)cc2)cn1 (stereo not given) 0.794 µM
Cc1ccc(N2C(=O)C3C4C=CC(CNC(=S)Nc5ccc(F)cc5)(O4)C3C2=O)cc1 (stereo not given) 4.47 µM
COc1ccc(NC(=O)/C(Cl)=C(/Cl)S(=O)Cc2ccccc2)cn1 (stereo not given) 1 µM
COc1ccccc1NC(=S)NC(=O)C(C)C 5.01 µM

Potency, inconclusive:
CC(Nc1ncnc2sccc12)c1ccccc1 (stereo not given) 0.501 µM [activator, partial curve, poor fit]
Cc1ccc(S(=O)(=O)N[C@@H](Cc2ccccc2)C(=O)CCl)cc1 35.5 µM [inhibitor, single point]
O=C1c2ccccc2COc2ccc(O)cc21 35.5 µM [activator, single point]
O=C(Nc1ccccc1N1CCOCC1)c1ccccc1NS(=O)(=O)c1ccc(F)cc1 12.6 µM [activator, single point]
Cn1cccc1/C=C1\SC(=S)N(NC(=O)c2ccccc2)C1=O 15.8 µM [activator, partial curve]
CCN1CCN(C(=O)c2cc(COc3ccc(F)cc3F)on2)[C@@H](C)C1=O 14.1 µM [activator, partial curve]
CCN(CC)c1ncnc2scc(C3COc4ccccc4O3)c12 (stereo not given) 35.5 µM [activator, single point]
COc1ccc(-n2nc(C(=O)NCC(=O)Nc3ccc(F)cc3)c3ccccc3c2=O)cc1 12.6 µM [activator, partial curve]
N#CC1=C(N)OC2=C(CN(Cc3ccccc3)C/C2=C\c2cccnc2)C1c1cccnc1 (stereo not given) 35.5 µM [inhibitor, single point]
COc1cc(OC)c(OC)cc1CNC(=O)c1cc(=O)[nH]c2ccccc12 4.47 µM [activator, full curve, poor fit]
C#CCOCCOCCOCCNc1nc(N2CCN(C(=O)[C@H](CCC(=O)O)n3cc(C(N)CO)nn3)CC2)nc(N2CCN(C(=O)[C@H](Cc3cc4ccccc4[nH]3)n3cc(C(N)[C@H](C)CC)nn3)CC2)n1 (stereo not given in full) 31.6 µM [inhibitor, single point]
CCN(c1ccccc1)S(=O)(=O)c1ccc(NCC2COc3ccccc3O2)nc1 (stereo not given) 4.47 µM [activator, partial curve]
CN(C)c1ccccc1C(=O)c1ccccc1N(C)C 22.4 µM [inhibitor, single point]
COc1ccc(/C=C2/SC(=O)N(CCNC(=O)C3CCCN3C(=O)c3cccs3)C2=O)cc1 (stereo not given) 22.4 µM [activator, single point]
COC(=O)c1cc(OC)c(OC)cc1NC(=S)Nc1cccc(C(C)=O)c1 20 µM [inhibitor, single point]
CNc1nnc(CSc2nc(C)cc(C)n2)s1 35.5 µM [activator, single point]
Cc1ccc(OCCn2c(SCCO)nc3c(N)ncnc32)cc1 15.8 µM [activator, single point]
CNc1nc2c(c(=O)n(C)c(=O)n2C)n1CCCc1ccccc1 14.1 µM [activator, partial curve]
Cc1nc(C(=O)NC2CCCCC2)sc1C1(C)CC(c2cccc([N+](=O)[O-])c2)=NO1 (stereo not given) 11.2 µM [activator, partial curve]
CC1C(=O)Nc2ccccc2N1C(=O)c1ccc(Cl)c(Cl)c1 (stereo not given) 5.01 µM [activator, single point]
CCc1ccc(NC(=O)CCNS(=O)(=O)c2cccc3nonc23)cc1 11.2 µM [activator, single point]
CCC/C=C(\CCC)C(NS(=O)(=O)c1ccc(Cl)cc1)c1ccccc1 (stereo not given) 14.1 µM [activator, single point]
Cc1ccc2c(c1)c(C)cc[n+]2Cc1ccccc1 12.6 µM [activator, partial curve]
COc1ccccc1CNC(=O)c1cc(=O)c2ccccc2o1 35.5 µM [activator, single point]
COc1ccccc1CNc1nc(-c2ccc3c(c2)OCO3)nc2ccccc12 17.8 µM [activator, single point]
Cc1c(CN2CCC(CO)(CCOc3ccccc3)CC2)[nH]c2c(Cl)cccc12 35.5 µM [inhibitor, single point]
CCCCNC(=S)Nc1cccc(C(C)=O)c1 17.8 µM [inhibitor, single point]
CCc1nc(SCc2ccc(C(=O)OC)o2)c2c(=O)n(C)c(=O)n(C)c2n1 35.5 µM [activator, single point]
CCCCOC(=O)Nc1ccc(S(=O)(=O)Nc2ccc([N+](=O)[O-])cc2)cc1 10 µM [activator, partial curve]
COC(=O)Cn1c(CCS(=O)(=O)c2ccc(C)c(C)c2)nc2ccccc21 2.24 µM [activator, full curve, poor fit]
CC(C)(C)c1ccc(-n2ncc3c2CCCC3NC(=O)CCn2cncn2)cc1 (stereo not given) 11.2 µM [activator, partial curve]
Cc1cccc(-c2cc3nc(-c4ccccc4)cc(N4CCC5(CC4)OCCO5)n3n2)c1 1.12 µM [activator, full curve]
CCc1n[nH]c(=S)n1/N=C/c1cc(Br)c(OC)cc1OC 11.2 µM [inhibitor, single point]
COc1cc(C(=S)N2CCCC2)ccc1OC(=O)c1ccc(Cl)cc1[N+](=O)[O-] 2.82 µM [inhibitor, partial curve]
CC(C)Nc1nnc(SCC(=O)c2c[nH]c3ccccc23)s1 14.1 µM [activator, partial curve]
CCN(CC)c1cc2nonc2c2nonc12 12.6 µM [activator, partial curve]
CC(C)(C)OC(=O)NCCc1nnc(SCC(=O)c2ccc(Cl)cc2)o1 35.5 µM [inhibitor, single point]
O=C(CCN1CCN(c2ccccc2)CC1)Nc1ccc(Cl)cc1 0.0794 µM [inhibitor, full curve, poor fit]
O=C1[C@@H]2Cc3c([nH]c4ccccc34)C(c3cccc([N+](=O)[O-])c3)N2C(=O)CN1C1CCN(Cc2ccccc2)CC1 (stereo not given in full) 22.4 µM [inhibitor, single point]
COCCCn1cc(C(=O)c2ccccc2OCC(=O)Nc2cccc(F)c2)cc(C#N)c1=O 17.8 µM [activator, partial curve, poor fit]
CCc1[nH]c(=S)c(C#N)c(-c2ccccc2)c1C(=O)OC 35.5 µM [inhibitor, single point]
CCc1ccc(-n2c(SCC(=O)Nc3cc(C)[nH]n3)nc3[nH]ncc3c2=O)cc1 22.4 µM [activator, single point]

13 compounds out of the list, arranged by length of the SMILES, ascending.
Potency, inconclusive:
CCN(CC)c1cc2nonc2c2nonc12 12.6 µM [activator, partial curve]
CCCCNC(=S)Nc1cccc(C(C)=O)c1 17.8 µM [inhibitor, single point]
COc1ccccc1CNC(=O)c1cc(=O)c2ccccc2o1 35.5 µM [activator, single point]
Cc1ccc(OCCn2c(SCCO)nc3c(N)ncnc32)cc1 15.8 µM [activator, single point]
CC(C)Nc1nnc(SCC(=O)c2c[nH]c3ccccc23)s1 14.1 µM [activator, partial curve]
CCc1n[nH]c(=S)n1/N=C/c1cc(Br)c(OC)cc1OC 11.2 µM [inhibitor, single point]
Cn1cccc1/C=C1\SC(=S)N(NC(=O)c2ccccc2)C1=O 15.8 µM [activator, partial curve]
CCC/C=C(\CCC)C(NS(=O)(=O)c1ccc(Cl)cc1)c1ccccc1 (stereo not given) 14.1 µM [activator, single point]
CCN(c1ccccc1)S(=O)(=O)c1ccc(NCC2COc3ccccc3O2)nc1 (stereo not given) 4.47 µM [activator, partial curve]
COc1ccc(/C=C2/SC(=O)N(CCNC(=O)C3CCCN3C(=O)c3cccs3)C2=O)cc1 (stereo not given) 22.4 µM [activator, single point]
Cc1nc(C(=O)NC2CCCCC2)sc1C1(C)CC(c2cccc([N+](=O)[O-])c2)=NO1 (stereo not given) 11.2 µM [activator, partial curve]
O=C1[C@@H]2Cc3c([nH]c4ccccc34)C(c3cccc([N+](=O)[O-])c3)N2C(=O)CN1C1CCN(Cc2ccccc2)CC1 (stereo not given in full) 22.4 µM [inhibitor, single point]
C#CCOCCOCCOCCNc1nc(N2CCN(C(=O)[C@H](CCC(=O)O)n3cc(C(N)CO)nn3)CC2)nc(N2CCN(C(=O)[C@H](Cc3cc4ccccc4[nH]3)n3cc(C(N)[C@H](C)CC)nn3)CC2)n1 (stereo not given in full) 31.6 µM [inhibitor, single point]

Following part.

Potency, inactive:
COc1cc(NCc2ccc3nc(N)nc(N)c3c2C)cc(OC)c1OC
O=c1cc(CO)occ1O

Activity change, negative = inhibition, inactive:
COc1ccc(C(=O)Nc2ccc(S(=O)(=O)N3CCCCC3)cc2)cc1OC 19.2%
COc1ccccc1CNc1ccnc(-c2ccccc2C(F)(F)F)n1 -18.9%
O=S(=O)(c1ccc(Cl)cc1)N1CCN(CCc2ccccc2)CC1 -5.01%
COCCNC(=O)CN(C(=O)CCC(=O)Nc1ccccn1)c1ccc(C)cc1C -2.11%
O=C(CCc1ccc(Oc2cc([N+](=O)[O-])cc([N+](=O)[O-])c2)cc1)N1CCCCCC1 -33.3%
CC(C)n1c(SCC(=O)N2c3ccccc3Sc3ccccc32)nc2c1c(=O)n(C)c(=O)n2C -1.82%
CCc1ccc(NC(=O)CNCc2ccc(OC)c(OC)c2)cc1 -11%
Cc1ccc(C)c(N(C(=O)c2nsc(Cl)c2Cl)C(C(=O)NC2CCCC2)c2ccc(O)cc2)c1 (stereo not given) 9.76%
CCCC(=O)Nc1ccc(Cl)c(NC(=S)NC(=O)C(C)C)c1 -42.7%
Cc1c(NC(=S)N/C(=N/S(=O)(=O)c2ccccc2)c2ccccc2)c(=O)n(-c2ccccc2)n1C 20%
COc1ccc(OC)c(NC(=O)N2CCCC(C(=O)c3ccccc3OC)C2)c1 (stereo not given) 9.52%
Nc1nc(N)c(Cc2ccc(Cl)cc2Cl)c(N)n1 24.5%
N#Cc1ccc[n+](CC(=O)c2ccc(NC(=O)c3ccccc3)cc2)c1 15.4%
NS(=O)(=O)c1ccc(CNC(=S)Nc2ccc(Cl)c(Cl)c2)cc1 37.5%
